Results: patent publication US20180256746A1, “IMMEDIATE RELEASE CLINDAMYCIN DELIVERY COMPOSITION AND FORMULATION” (Iono Pharma, LLC, priority 2017, published 2018)
Where a name gives a salt, the structure may show the parent alone.

Conditions: one month at 25° C. and 40° C.

## CCC[C@@H]1C[C@@H](C(=O)N[C@@H]([C@H]2O[C@H](SC)[C@H](O)[C@@H](O)[C@H]2O)[C@H](C)Cl)N(C)C1 [clindamycin, clindamycin hydrochloride]
75 mg clindamycin HCl in 5 ml DI water with suspension excipients
  stability in the presence of excipients (no resin): no degradation
75 mg clindamycin HCl in 5 ml DI water
  stability profile in DI water: no degradation
